Data published in the supplement of paper PMC10849652.
This is one part of the list.

Amino acid sequences for entries named in this document (tags omitted). A change or cut given only in a name is not applied to a line headed by its entry.
UniProt Q5W0V3: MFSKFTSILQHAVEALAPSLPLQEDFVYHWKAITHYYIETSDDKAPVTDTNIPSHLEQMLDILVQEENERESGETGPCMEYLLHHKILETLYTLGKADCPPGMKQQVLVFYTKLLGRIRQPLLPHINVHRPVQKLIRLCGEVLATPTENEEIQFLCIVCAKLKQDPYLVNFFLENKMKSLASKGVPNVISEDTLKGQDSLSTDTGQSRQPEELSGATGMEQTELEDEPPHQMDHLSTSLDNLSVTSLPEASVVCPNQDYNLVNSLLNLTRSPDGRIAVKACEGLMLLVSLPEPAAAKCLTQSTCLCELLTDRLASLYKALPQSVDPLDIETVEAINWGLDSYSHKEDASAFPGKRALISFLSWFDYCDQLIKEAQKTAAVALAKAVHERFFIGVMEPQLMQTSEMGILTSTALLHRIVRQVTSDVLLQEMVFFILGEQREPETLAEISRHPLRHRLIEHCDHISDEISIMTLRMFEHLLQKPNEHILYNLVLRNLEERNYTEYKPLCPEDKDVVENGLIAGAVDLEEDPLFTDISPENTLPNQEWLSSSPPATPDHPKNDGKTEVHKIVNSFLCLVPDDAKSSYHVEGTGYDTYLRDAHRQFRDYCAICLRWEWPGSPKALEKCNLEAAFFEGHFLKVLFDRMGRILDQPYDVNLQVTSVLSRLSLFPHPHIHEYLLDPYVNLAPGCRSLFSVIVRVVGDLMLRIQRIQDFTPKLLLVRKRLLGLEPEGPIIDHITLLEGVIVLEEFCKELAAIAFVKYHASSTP
UniProt Q9BPY3: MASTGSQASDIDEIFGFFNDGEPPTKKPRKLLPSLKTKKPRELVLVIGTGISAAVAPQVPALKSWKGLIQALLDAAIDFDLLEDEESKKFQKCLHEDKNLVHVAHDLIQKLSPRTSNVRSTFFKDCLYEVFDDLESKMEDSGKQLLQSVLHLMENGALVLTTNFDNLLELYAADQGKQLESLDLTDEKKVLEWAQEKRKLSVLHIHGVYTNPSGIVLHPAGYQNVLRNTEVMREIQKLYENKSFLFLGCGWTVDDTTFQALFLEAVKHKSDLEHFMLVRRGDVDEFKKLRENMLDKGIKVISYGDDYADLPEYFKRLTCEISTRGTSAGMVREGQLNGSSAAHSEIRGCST
UniProt Q9H4H8: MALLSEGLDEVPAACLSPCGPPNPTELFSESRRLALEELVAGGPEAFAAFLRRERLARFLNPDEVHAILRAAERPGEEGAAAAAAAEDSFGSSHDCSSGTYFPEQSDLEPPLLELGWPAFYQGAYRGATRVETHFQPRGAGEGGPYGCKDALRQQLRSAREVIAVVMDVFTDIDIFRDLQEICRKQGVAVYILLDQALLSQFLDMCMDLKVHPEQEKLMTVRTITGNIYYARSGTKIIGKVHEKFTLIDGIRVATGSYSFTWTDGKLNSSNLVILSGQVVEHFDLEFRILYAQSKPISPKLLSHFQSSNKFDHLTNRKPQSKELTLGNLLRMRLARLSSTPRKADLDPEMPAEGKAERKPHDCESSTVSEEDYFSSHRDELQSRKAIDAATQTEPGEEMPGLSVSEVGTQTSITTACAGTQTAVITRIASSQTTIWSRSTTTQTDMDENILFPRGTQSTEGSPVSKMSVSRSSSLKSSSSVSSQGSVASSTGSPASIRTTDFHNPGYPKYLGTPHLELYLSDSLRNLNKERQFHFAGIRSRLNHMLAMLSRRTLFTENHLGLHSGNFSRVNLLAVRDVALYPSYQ
UniProt Q9NQT5, whole entry, looked up: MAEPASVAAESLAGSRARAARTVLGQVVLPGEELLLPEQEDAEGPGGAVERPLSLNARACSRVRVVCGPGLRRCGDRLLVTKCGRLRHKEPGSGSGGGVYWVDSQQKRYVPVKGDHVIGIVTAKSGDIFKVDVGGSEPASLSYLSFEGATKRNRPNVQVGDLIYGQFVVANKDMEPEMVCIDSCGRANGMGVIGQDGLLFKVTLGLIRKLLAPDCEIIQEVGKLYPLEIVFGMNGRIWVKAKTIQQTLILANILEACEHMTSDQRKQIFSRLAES
UniProt Q96ND0: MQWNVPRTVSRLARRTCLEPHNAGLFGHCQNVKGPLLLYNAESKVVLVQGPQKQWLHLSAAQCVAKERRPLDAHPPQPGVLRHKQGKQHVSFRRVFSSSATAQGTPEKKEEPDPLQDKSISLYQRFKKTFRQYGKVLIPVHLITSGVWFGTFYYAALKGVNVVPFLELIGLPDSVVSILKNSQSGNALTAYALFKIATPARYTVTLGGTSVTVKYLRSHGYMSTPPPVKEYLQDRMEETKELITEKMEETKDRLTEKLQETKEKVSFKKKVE
UniProt Q86YB8: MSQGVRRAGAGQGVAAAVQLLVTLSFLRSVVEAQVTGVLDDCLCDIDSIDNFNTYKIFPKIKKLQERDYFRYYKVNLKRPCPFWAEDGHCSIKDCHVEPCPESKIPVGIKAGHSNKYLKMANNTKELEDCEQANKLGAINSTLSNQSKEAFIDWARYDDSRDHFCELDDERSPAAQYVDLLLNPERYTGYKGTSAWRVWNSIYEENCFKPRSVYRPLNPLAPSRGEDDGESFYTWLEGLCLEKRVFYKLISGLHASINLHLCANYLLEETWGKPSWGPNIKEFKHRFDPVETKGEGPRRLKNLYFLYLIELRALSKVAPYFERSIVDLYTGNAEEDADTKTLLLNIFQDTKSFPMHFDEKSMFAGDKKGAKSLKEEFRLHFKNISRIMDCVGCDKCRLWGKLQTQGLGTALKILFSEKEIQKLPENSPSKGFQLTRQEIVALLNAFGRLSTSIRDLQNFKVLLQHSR
UniProt Q15910, whole entry, looked up: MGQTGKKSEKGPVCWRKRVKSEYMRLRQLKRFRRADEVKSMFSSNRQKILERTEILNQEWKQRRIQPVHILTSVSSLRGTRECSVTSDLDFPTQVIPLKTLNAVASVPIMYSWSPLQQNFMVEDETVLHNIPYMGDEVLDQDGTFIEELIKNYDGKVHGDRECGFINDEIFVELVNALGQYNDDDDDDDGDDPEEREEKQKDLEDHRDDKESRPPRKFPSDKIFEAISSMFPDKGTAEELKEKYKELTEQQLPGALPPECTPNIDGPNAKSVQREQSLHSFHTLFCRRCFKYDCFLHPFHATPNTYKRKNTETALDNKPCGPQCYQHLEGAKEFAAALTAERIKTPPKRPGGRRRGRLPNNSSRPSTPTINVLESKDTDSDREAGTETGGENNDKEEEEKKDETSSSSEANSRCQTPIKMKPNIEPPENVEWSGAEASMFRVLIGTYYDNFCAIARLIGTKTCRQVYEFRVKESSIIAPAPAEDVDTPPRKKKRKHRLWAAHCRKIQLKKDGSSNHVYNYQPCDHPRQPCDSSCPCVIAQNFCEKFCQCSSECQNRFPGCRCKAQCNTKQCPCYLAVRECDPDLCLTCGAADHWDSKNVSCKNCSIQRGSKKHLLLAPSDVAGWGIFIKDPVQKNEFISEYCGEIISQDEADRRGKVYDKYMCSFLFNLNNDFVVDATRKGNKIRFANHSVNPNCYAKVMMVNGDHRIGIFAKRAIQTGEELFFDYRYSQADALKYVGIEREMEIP
UniProt Q9C073: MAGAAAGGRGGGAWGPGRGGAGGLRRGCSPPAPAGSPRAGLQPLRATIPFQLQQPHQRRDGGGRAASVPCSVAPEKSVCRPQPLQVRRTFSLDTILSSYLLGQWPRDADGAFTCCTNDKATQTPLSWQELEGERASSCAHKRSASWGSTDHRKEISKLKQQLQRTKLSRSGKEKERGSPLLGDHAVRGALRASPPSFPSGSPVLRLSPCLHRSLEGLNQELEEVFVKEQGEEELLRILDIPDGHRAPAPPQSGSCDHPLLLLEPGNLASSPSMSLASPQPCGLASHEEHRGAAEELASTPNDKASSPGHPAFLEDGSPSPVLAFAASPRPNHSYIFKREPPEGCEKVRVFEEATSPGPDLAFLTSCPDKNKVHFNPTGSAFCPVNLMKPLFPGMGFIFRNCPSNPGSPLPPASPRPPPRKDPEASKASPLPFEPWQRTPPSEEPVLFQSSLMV
UniProt O60447: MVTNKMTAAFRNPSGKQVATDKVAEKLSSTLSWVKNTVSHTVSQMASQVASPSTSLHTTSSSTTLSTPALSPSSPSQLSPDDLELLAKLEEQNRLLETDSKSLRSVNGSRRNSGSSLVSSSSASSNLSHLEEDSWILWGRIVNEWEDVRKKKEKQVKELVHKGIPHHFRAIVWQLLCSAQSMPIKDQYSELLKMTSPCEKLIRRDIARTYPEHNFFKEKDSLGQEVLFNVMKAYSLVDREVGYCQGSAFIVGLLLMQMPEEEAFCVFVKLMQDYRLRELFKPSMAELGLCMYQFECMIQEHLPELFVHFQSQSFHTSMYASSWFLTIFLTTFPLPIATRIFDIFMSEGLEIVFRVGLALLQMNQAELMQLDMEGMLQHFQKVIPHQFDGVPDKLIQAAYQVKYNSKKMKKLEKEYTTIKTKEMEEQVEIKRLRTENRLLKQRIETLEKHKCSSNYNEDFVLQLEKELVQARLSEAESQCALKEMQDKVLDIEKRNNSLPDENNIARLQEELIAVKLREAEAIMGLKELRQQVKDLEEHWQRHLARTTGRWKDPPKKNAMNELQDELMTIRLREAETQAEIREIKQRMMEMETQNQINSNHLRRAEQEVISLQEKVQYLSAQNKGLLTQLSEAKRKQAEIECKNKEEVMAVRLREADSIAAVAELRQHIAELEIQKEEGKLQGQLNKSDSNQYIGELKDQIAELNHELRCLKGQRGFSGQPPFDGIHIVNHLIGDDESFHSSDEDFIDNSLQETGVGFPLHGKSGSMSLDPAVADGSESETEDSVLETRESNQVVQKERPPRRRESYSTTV
UniProt O94905: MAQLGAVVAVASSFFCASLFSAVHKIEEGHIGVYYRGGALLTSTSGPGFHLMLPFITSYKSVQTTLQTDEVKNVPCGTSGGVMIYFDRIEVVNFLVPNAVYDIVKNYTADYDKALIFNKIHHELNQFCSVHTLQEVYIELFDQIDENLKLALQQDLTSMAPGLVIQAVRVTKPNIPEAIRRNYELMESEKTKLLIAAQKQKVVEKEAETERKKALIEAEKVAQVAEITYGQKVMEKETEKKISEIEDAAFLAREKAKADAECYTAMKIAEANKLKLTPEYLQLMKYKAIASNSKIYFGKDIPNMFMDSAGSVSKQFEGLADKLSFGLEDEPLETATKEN
UniProt P10768: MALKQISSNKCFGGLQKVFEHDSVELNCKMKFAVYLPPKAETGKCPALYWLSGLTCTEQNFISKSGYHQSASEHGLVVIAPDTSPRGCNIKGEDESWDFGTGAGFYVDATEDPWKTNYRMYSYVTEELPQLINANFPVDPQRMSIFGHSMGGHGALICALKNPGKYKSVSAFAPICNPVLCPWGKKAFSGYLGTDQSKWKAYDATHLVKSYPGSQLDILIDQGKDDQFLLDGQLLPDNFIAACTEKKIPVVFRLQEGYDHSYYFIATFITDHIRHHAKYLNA
UniProt O95571: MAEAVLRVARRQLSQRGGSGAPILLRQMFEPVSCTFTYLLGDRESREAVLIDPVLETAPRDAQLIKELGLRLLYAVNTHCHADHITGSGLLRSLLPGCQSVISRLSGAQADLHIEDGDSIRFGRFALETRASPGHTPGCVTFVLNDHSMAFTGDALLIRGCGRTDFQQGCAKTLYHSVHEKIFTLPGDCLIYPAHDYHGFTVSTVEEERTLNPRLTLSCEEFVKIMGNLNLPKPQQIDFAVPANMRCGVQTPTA
UniProt Q96KP1: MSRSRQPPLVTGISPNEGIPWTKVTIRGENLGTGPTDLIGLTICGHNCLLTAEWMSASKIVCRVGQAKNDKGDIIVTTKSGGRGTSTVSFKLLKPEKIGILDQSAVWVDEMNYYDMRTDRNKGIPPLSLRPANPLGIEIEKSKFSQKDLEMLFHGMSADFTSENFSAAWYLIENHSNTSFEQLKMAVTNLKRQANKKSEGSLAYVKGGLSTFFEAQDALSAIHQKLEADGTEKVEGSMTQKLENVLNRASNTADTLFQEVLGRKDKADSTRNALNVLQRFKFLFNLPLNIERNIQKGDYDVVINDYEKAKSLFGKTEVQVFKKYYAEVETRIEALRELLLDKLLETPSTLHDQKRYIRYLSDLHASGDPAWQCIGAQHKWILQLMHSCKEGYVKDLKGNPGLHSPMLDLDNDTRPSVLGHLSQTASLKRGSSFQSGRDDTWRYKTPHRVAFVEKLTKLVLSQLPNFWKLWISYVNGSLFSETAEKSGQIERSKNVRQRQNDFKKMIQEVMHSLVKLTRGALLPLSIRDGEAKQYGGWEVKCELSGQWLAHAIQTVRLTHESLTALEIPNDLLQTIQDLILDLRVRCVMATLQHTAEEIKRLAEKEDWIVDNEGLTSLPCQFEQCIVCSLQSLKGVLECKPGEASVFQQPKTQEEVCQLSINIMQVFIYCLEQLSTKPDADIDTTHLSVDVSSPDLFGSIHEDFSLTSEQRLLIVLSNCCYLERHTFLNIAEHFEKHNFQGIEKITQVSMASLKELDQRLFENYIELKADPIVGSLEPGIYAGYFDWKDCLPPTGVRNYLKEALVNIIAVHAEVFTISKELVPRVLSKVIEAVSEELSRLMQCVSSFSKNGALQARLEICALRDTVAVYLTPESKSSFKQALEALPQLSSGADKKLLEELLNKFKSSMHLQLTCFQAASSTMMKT

What was measured:
Assay in all cases: log2 fold change, soluble protein after heating vs DMSO (PISA); higher = thermal stabilisation; K562 lysate, 10 uM; active = over 0.2 and 3.5 SD of the protein, either way, in both replicates (recomputed)
erlotinib = compound: C#Cc1cccc(Nc2ncnc3cc(OCCOC)c(OCCOC)cc23)c1 [erlotinib]
Method in brief: (§1)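 A 30 min treatment with 10 μM compound was applied to crude K562 extract at 1 mg/mL protein in PBS pH 7.4 with 1 mM MgCl2. Heating for 3 min spanned 48°C-58°C, after which aliquots were pooled, adjusted to 0.5% NP-40 at 4°C and spun at 21,000xg for 90 min. TMTpro 16plex LC-MS/MS of the supernatant, with channel sums equalised, gave values recorded as log-two fold change in thermal stability against solvent controls, from duplicates.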

[1] = compound: C/C(=N\NC(=O)C1=CC(=CC=C1)S(=O)(=O)N2CCOCC2)/C3=C(C=CC(=C3)Cl)O
Method in brief: as §1

[2] = compound: C1=CC(=CC=C1C2=NC3=C(N2)C=C(C=C3)C(=O)N)OC4=CC=C(C=C4)Cl
Method in brief: as §1

[3] = compound: C1=CC2=C(C=CC(=C2)/C=C\3/C(=O)NC(=NCC4=CC=CS4)S3)N=C1
Method in brief: as §1

[4] = compound: C1=CC2=NC=CN=C2C=C1/C=C/3\C(=O)NC(=O)S3
Method in brief: as §1

[5] = compound: C1=CC=C(C=C1)C2=NC(=C(N2)C3=CC=NC=C3)C4=CC(=C(C=C4)Cl)O
Method in brief: as §1

[6] = compound: C1=CC=C2C(=C1)C3=NNC4=CC=CC(=C43)C2=O
Method in brief: as §1

[7] = compound: C1CCN(C1)C(=O)NC2=CC=CC(=C2)NC3=NC=C(C(=N3)NCCC4=CN=CN4)Br
Method in brief: as §1

[8] = compound: C1CN(CCC1(CC2=CC=C(C=C2)Cl)N)C3=NC=NC4=C3C=CN4
Method in brief: as §1

IRAK-1-4 Inhibitor I = compound: C1COCCN1CCN2C3=CC=CC=C3N=C2NC(=O)C4=CC(=CC=C4)[N+](=O)[O-] [IRAK-1-4 Inhibitor I]
Method in brief: as §1

ibrutinib = compound: C=CC(=O)N1CCC[C@@H](n2nc(-c3ccc(Oc4ccccc4)cc3)c3c(N)ncnc32)C1 [ibrutinib]
Method in brief: as §1

[9] = compound: CC(=O)c1cnc2ccc(-c3cc(Cl)c(O)c(Cl)c3)nc2c1N[C@H]1CC[C@H](CN(C)C)CC1
Method in brief: as §1

ralimetinib = compound: CC(C)(C)Cn1c(N)nc2ccc(-c3[nH]c(C(C)(C)C)nc3-c3ccc(F)cc3)nc21 [ralimetinib]
Method in brief: as §1

[10] = compound: CC(C)(O)CC(=O)NCCn1ccc2ncnc(Nc3ccc(Oc4cccc(C(F)(F)F)c4)c(Cl)c3)c21
Method in brief: as §1

[11] = compound: CC(C)C1=C2N=C(C=C(N2N=C1)NCC3=CC=CC=C3)NCCCCCCN
Method in brief: as §1

[12] = compound: CC1=C(C(CC(=O)N1)C2=CC=C(C=C2)C(F)(F)F)C(=O)NC3=C(C=C4C(=C3)C=NN4)F
Method in brief: as §1

[13] = compound: CC1=C(C2=C(C=C1)C(=O)C3=CC=CC=C3N2CCCN)C
Method in brief: as §1

[14] = compound: CC1=C(C=C(C=C1)NC(=O)C2=CC(=CC=C2)C(C)(C)C#N)NC3=CC4=C(C=C3)N=CN(C4=O)C
Method in brief: as §1

[15] = compound: CC1=C(C=C(C=C1)NC(=O)C2=CC(=CC=C2)N(C)C)NC(=O)C3=CC=C(C=C3)O
Method in brief: as §1

[16] = compound: CC1=CC=C(C=C1)SC2=C3C=C(SC3=CN=C2)C(=O)N
Method in brief: as §1

Measured: log2 fold change

FAM160B1 (UniProt Q5W0V3)
inactive: erlotinib 0.006 | [1] -0.052 | [2] 0.022 | [3] 0.04 | [4] -0.003 | [5] -0.024 | [6] 0.072 | [7] -0.022 | [8] 0.032 | IRAK-1-4 Inhibitor I 0.015 | ibrutinib 0.04 | [9] 0.006 | ralimetinib 0.004 | [10] -0.02 | [11] -0.021 | [12] 0.028 | [13] -0.03 | [14] 0.034 | [15] 0.02 | [16] -0.015

FAM118B (UniProt Q9BPY3)
inactive: erlotinib -0.004 | [1] 0.051 | [2] 0.004 | [3] 0.061 | [4] 0.03 | [5] -0.01 | [6] -0.012 | [7] 0.013 | [8] -0.004 | IRAK-1-4 Inhibitor I -0.03 | ibrutinib 0.066 | [9] -0.016 | ralimetinib 0.015 | [10] -0.019 | [11] 0.023 | [12] -0.01 | [13] 0.012 | [14] -0.012 | [15] 0.03 | [16] 0.008

FAM83D (UniProt Q9H4H8)
inactive: erlotinib 0.033 | [1] 0.013 | [2] -0.049 | [3] 0.006 | [4] 0 | [5] -0.009 | [6] -0.003 | [7] -0.005 | [8] -0.004 | IRAK-1-4 Inhibitor I 0.019 | ibrutinib 0.028 | [9] 0.031 | ralimetinib 0.041 | [10] -0.018 | [11] 0.013 | [12] 0.038 | [13] -0.098 | [14] -0.032 | [15] 0.031 | [16] 0.017

EXOSC4 (UniProt Q9NPD3)
inactive: erlotinib -0.018 | [1] -0.032 | [2] -0.003 | [3] -0.006 | [4] 0.035 | [5] 0.021 | [6] 0 | [7] -0.015 | [8] 0.007 | IRAK-1-4 Inhibitor I -0.007 | ibrutinib -0.004 | [9] -0.009 | ralimetinib 0.028 | [10] 0.004 | [11] -0.021 | [12] 0.004 | [13] -0.012 | [14] 0.008 | [15] 0.031 | [16] 0.005

EXOSC3 (UniProt Q9NQT5)
inactive: erlotinib 0.023 | [1] -0.008 | [2] -0.003 | [3] 0.029 | [4] -0.002 | [5] 0.017 | [6] -0.016 | [7] -0.005 | [8] 0.005 | IRAK-1-4 Inhibitor I 0.032 | ibrutinib -0.004 | [9] -0.01 | ralimetinib 0.007 | [10] -0.063 | [11] 0.016 | [12] 0.016 | [13] -0.042 | [14] 0.047 | [15] -0.027 | [16] 0.008

FAM210A (UniProt Q96ND0)
inactive: erlotinib -0.016 | [1] -0.008 | [2] 0.028 | [3] 0.042 | [4] -0.016 | [5] -0.113 | [6] -0.008 | [7] 0.024 | [8] -0.018 | IRAK-1-4 Inhibitor I -0.011 | ibrutinib 0.047 | [9] -0.012 | ralimetinib 0.024 | [10] -0.007 | [11] -0.029 | [12] 0.006 | [13] -0.006 | [14] 0.02 | [15] -0.021 | [16] -0.026

ERO1B (UniProt Q86YB8)
inactive: erlotinib -0.097 | [1] -0.115 | [2] 0.152 | [3] 0.032 | [4] 0.037 | [5] -0.055 | [6] -0.006 | [7] -0.046 | [8] 0.034 | IRAK-1-4 Inhibitor I -0.003 | ibrutinib -0.03 | [9] 0.027 | ralimetinib -0.043 | [10] -0.017 | [11] 0.063 | [12] -0.161 | [13] -0.087 | [14] -0.084 | [15] 0.022 | [16] -0.014

EZH2 isoform 2 (UniProt Q15910)
inactive: erlotinib 0.051 | [1] -0.148 | [2] 0.035 | [3] -0.003 | [4] 0.109 | [5] -0.011 | [6] 0.023 | [7] 0.059 | [8] -0.099 | IRAK-1-4 Inhibitor I -0.021 | ibrutinib 0.086 | [9] 0.023 | ralimetinib 0.001 | [10] 0.004 | [11] 0.002 | [12] 0 | [13] -0.01 | [14] 0.004 | [15] 0.003 | [16] -0.021

EXT2 isoform 3 (UniProt Q93063)
inactive: erlotinib 0.066 | [1] -0.02 | [2] -0.008 | [3] -0.066 | [4] 0.034 | [5] -0.024 | [6] 0.025 | [7] 0.023 | [8] 0.008 | IRAK-1-4 Inhibitor I 0.073 | ibrutinib 0.166 | [9] 0.038 | ralimetinib -0.005 | [10] 0.016 | [11] -0.113 | [12] 0.04 | [13] -0.061 | [14] 0.06 | [15] -0.004 | [16] 0.189

FAM117A (UniProt Q9C073)
inactive: erlotinib -0.012 | [1] -0.025 | [2] 0.042 | [3] 0.109 | [4] 0.023 | [5] -0.007 | [6] 0.036 | [7] -0.015 | [8] -0.007 | IRAK-1-4 Inhibitor I 0.029 | ibrutinib 0.031 | [9] 0.051 | ralimetinib -0.008 | [10] 0.019 | [11] -0.024 | [12] 0.04 | [13] -0.025 | [14] 0.019 | [15] -0.028 | [16] 0.011

ETF1 (UniProt P62495)
inactive: erlotinib -0.01 | [1] -0.015 | [2] -0.01 | [3] -0.007 | [4] -0.012 | [5] -0.008 | [6] 0.003 | [7] -0.024 | [8] 0.015 | IRAK-1-4 Inhibitor I -0.004 | ibrutinib -0.003 | [9] -0.004 | ralimetinib -0.015 | [10] -0.003 | [11] -0.022 | [12] -0.039 | [13] 0.016 | [14] 0.009 | [15] -0.009 | [16] 0.001

EVI5 isoform 2 (UniProt O60447)
inactive: erlotinib -0.07 | [1] 0.104 | [2] 0.063 | [3] 0.034 | [4] 0.047 | [5] -0.037 | [6] -0.037 | [7] 0.039 | [8] -0.033 | IRAK-1-4 Inhibitor I 0 | ibrutinib -0.025 | [9] 0.029 | ralimetinib 0.054 | [10] -0.009 | [11] 0.133 | [12] -0.026 | [13] -0.008 | [14] 0.398 | [15] -0.059 | [16] -0.015

ERLIN2 (UniProt O94905)
inactive: erlotinib -0.028 | [1] 0.051 | [2] -0.1 | [3] -0.002 | [4] -0.047 | [5] -0.019 | [6] -0.031 | [7] -0.039 | [8] 0.006 | IRAK-1-4 Inhibitor I -0.013 | ibrutinib 0.033 | [9] -0.028 | ralimetinib 0.026 | [10] -0.023 | [11] -0.023 | [12] -0.012 | [13] -0.031 | [14] -0.016 | [15] 0.066 | [16] -0.014

ESD (UniProt P10768)
inactive: erlotinib -0.005 | [1] 0.012 | [2] -0.013 | [3] -0.003 | [4] -0.002 | [5] 0.022 | [6] 0.019 | [7] 0.002 | [8] 0.03 | IRAK-1-4 Inhibitor I -0.016 | ibrutinib -0.011 | [9] -0.01 | ralimetinib -0.023 | [10] 0.019 | [11] 0.004 | [12] -0.002 | [13] 0.018 | [14] 0.021 | [15] -0.027 | [16] 0.025

ETHE1 (UniProt O95571)
inactive: erlotinib -0.046 | [1] -0.01 | [2] 0.039 | [3] 0.021 | [4] 0.034 | [5] -0.007 | [6] 0.012 | [7] -0.046 | [8] -0.013 | IRAK-1-4 Inhibitor I -0.044 | ibrutinib -0.029 | [9] -0.01 | ralimetinib 0.03 | [10] -0.021 | [11] -0.092 | [12] 0.087 | [13] 0.022 | [14] 0.011 | [15] 0.046 | [16] -0.042

EXOC2 (UniProt Q96KP1)
inactive: erlotinib 0.011 | [1] -0.008 | [2] -0.028 | [3] 0.049 | [4] -0.008 | [5] -0.001 | [6] -0.042 | [7] -0.018 | [8] 0.016 | IRAK-1-4 Inhibitor I 0.009 | ibrutinib 0.014 | [9] 0.003 | ralimetinib 0.049 | [10] -0.027 | [11] -0.022 | [12] 0.01 | [13] -0.019 | [14] 0.016 | [15] 0.032 | [16] 0.004
